Assay results: PubChem BioAssay AID256 (DTP/NCI, 2004)
The list is a part of this screen's results and no random one: it gathers tests that were run many times, whatever their T/C, doses with no T/C, and many T/C values between a quarter and a half above the control. Other doses and runs of a compound stand elsewhere. T/C gives the treated animals as a percentage of the vehicle group. Some entries give survivors of the animals treated and no T/C: the source holds a T/C of zero for them, seemingly a mark for toxic or unscored doses. Some doses without a T/C left all or most animals alive at the check, yet need not have been tolerated: survival well below the control is almost never listed, so the zero probably covers shortened survival too. Survivors were counted at the toxicity check, usually on the fifth day, unless a day is given; later deaths do not show. Schedule codes are those of the source, read here as Q, the interval in days (D) or hours (H), X, the number of doses. Some entries hold several experiments; the values are given in rising order. Brackets with × give the number of equal values in this list. For survival time, the PubChem record calls one and a half times the control and up active, and a quarter to a half above the control has no call in these data; cut-offs in other NCI protocols can differ. Some T/C values carry the count of animals alive at the toxicity check (mostly the fifth day); without a count, all were alive then.

Tested on: CD2F1 mice, L1210 leukemia ip, survival T/C
Test: NCI In Vivo Anticancer Drug Screen. Data for tumor model L1210 Leukemia (intraperitoneal) in CD2F1 (CDF1) mice
Settings: higher T/C = longer survival
Method in brief: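 Vehicle-treated tumor-bearing mice served as controls (C) for compound-treated mice (T). Reported figure is T divided by C.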

[1] = T/C endpoint: mean survival time, dose: 200.0 mg/kg/injection, schedule: Q01DX009 (ip), vehicle: saline with Tween-80
[2] = T/C endpoint: mean survival time, dose: 400.0 mg/kg/injection, schedule: Q01DX009 (ip), vehicle: saline with Tween-80
[3] = T/C endpoint: mean survival time, dose: 400.0 mg/kg/injection, schedule: Q04DX003 (ip), vehicle: saline with Tween-80
[4] = T/C endpoint: mean survival time, dose: 3.75 mg/kg/injection, schedule: Q01DX009 (ip), vehicle: distilled water + alcohol
[5] = T/C endpoint: mean survival time, dose: 300.0 mg/kg/injection, schedule: Q01DX001 (ip), vehicle: saline
[6] = T/C endpoint: mean survival time, dose: 150.0 mg/kg/injection, schedule: Q01DX001 (ip), vehicle: saline

For `Cc1cc2c(cc1C)[n+]([O-])c1c(=O)[nH]c(=O)[nH]c1[n+]2[O-]`, the survivor count (T/C endpoint: mean survival time, dose: 100.0 mg/kg/injection, schedule: Q04DX002 (ip), vehicle: saline with Tween-80) was 0 of 3.
For `O=[Te]=O`, the survivor count (T/C endpoint: median survival time, dose: 40.0 mg/kg/injection, schedule: Q01DX009 (ip), vehicle: saline) was 2 of 6.
In the case of `O=C(Nc1ccc(Oc2ccc(Cl)c(Cl)c2)c(Cl)c1)Nc1cc(Cl)c(Cl)cc1S(=O)(=O)O`, the survivor count [1] is reported as 4 of 6 and the survivor count [2] is reported as 0 of 6.
In the case of `COC(=O)c1cc(-c2ccccc2)nc2c1ccc1ccccc12`, the survivor count (T/C endpoint: mean survival time, dose: 200.0 mg/kg/injection, schedule: Q01DX001 (ip), vehicle: saline) is reported as 6 of 6 and the survivor count (T/C endpoint: mean survival time, dose: 400.0 mg/kg/injection, schedule: Q01DX001 (ip), vehicle: saline) is reported as 6 of 6.
`O=NNc1cccnc1` was tested, and the survivor count (T/C endpoint: median survival time, dose: 50.0 mg/kg/injection, schedule: Q01DX009 (ip), vehicle: water) was 4 of 6 and the survivor count (T/C endpoint: median survival time, dose: 100.0 mg/kg/injection, schedule: Q01DX009 (ip), vehicle: water) was 0 of 6.
`CC1(C)CN1P(=S)(N1CC1(C)C)N1CC1(C)C` (centres undefined) was tested, and the T/C (T/C endpoint: mean survival time, dose: 225.0 mg/kg/injection, schedule: Q01DX001 (ip), vehicle: other) was 142 % of control and the survivor count (T/C endpoint: mean survival time, dose: 500.0 mg/kg/injection, schedule: Q01DX001 (ip), vehicle: other) was 3 of 6.
In the case of `O=C1NC2(CCCCC2)C(=O)N1CCN(CCCl)CCCl`, the T/C (T/C endpoint: median survival time, dose: 4.0 mg/kg/injection, schedule: Q01DX009 (ip), vehicle: Klucel (hydroxypropylcellulose) (HPC), evaluated on day 45) is reported as 143 % of control, the T/C (T/C endpoint: median survival time, dose: 4.0 mg/kg/injection, schedule: Q01DX009 (ip), vehicle: Klucel (hydroxypropylcellulose) (HPC), evaluated on day 60) is reported as 134 % of control and the T/C (T/C endpoint: median survival time, dose: 6.0 mg/kg/injection, schedule: Q01DX009 (ip), vehicle: Klucel (hydroxypropylcellulose) (HPC)) is reported as 140 % of control. For the same compound, the survivor count (T/C endpoint: median survival time, dose: 16.0 mg/kg/injection, schedule: Q03HX016 (ip), vehicle: Klucel (hydroxypropylcellulose) (HPC)) was 6 of 10, the T/C (T/C endpoint: median survival time, dose: 32.0 mg/kg/injection, schedule: Q01DX009 (ip), vehicle: Klucel (hydroxypropylcellulose) (HPC)) was 142 % of control and the survivor count (T/C endpoint: median survival time, dose: 32.0 mg/kg/injection, schedule: Q03HX008 (ip), vehicle: Klucel (hydroxypropylcellulose) (HPC)) was 3 of 10. For the same compound, the T/C (T/C endpoint: median survival time, dose: 64.0 mg/kg/injection, schedule: Q04DX003 (ip), vehicle: Klucel (hydroxypropylcellulose) (HPC)) was 144 % of control and the T/C (T/C endpoint: median survival time, dose: 128.0 mg/kg/injection, schedule: Q01DX001 (ip), vehicle: Klucel (hydroxypropylcellulose) (HPC)) was 126 % of control.
In the case of `C/C(=C/C#N)c1ccccc1`, the survivor count [1] is reported as 3 of 6 and the survivor count [3] is reported as 1 of 6.
`COc1ccc2c(NCCCCCCCCNc3c4ccccc4nc4cc(OC)ccc34)c3ccccc3nc2c1` was tested, and the T/C (T/C endpoint: mean survival time, dose: 0.93 mg/kg/injection, schedule: Q01DX009 (ip), vehicle: distilled water + alcohol) was 136 % of control, the survivor count (T/C endpoint: mean survival time, dose: 0.94 mg/kg/injection, schedule: Q01DX009 (ip), vehicle: distilled water + alcohol) was 0 of 10 and the T/C (T/C endpoint: mean survival time, dose: 1.87 mg/kg/injection, schedule: Q01DX009 (ip), vehicle: distilled water + alcohol) was 139 % of control. The T/C [4] was 113, 123, 128 % of control, the survivor count [4] was 6 of 10 and the survivor count (T/C endpoint: mean survival time, dose: 7.5 mg/kg/injection, schedule: Q01DX009 (ip), vehicle: distilled water + alcohol) was 2 of 10, 2 of 6, 6 of 6. The survivor count (T/C endpoint: mean survival time, dose: 15.0 mg/kg/injection, schedule: Q01DX009 (ip), vehicle: distilled water + alcohol) was 2 of 6, the survivor count (T/C endpoint: mean survival time, dose: 30.0 mg/kg/injection, schedule: Q01DX009 (ip), vehicle: distilled water + alcohol) was 0 of 6 and the survivor count (T/C endpoint: median survival time, dose: 8.0 mg/kg/injection, schedule: Q01DX009 (ip), vehicle: distilled water + alcohol) was 7 of 10. The survivor count (T/C endpoint: median survival time, dose: 16.0 mg/kg/injection, schedule: Q01DX009 (ip), vehicle: distilled water + alcohol) was 1 of 10.
With `O=C1NC(=O)C(Br)C(=O)N1` the survivor count [5] was 0 of 6.
With `CN(C)N=Nc1c(F)c(F)c(F)c(F)c1F` the survivor count [1] was 2 of 6 and the survivor count [2] was 1 of 6.
With `CN(C)Cc1c(-c2ccccc2)c(CN(C)C)n2ccccc12` the survivor count [6] was 0 of 6 and the survivor count [5] was 0 of 6.
`COC1C(O)C(C)OC(OC2CC(O)C3(C)C(CCC4C3CCC3(C)C(C5=CC(=O)OC5)CCC43O)C2)C1O` (centres undefined) (tested in a mixture with another compound) was tested, and the survivor count (T/C endpoint: mean survival time, dose: 100.0 mg/kg/injection, schedule: Q01DX001 (ip), vehicle: saline sonified) was 0 of 6 and the survivor count (T/C endpoint: mean survival time, dose: 200.0 mg/kg/injection, schedule: Q01DX001 (ip), vehicle: saline sonified) was 0 of 6.
For `O=C(O)CC1OCC=C2CN3CCC45c6ccccc6NC4C1C2CC35` (centres undefined), the survivor count (T/C endpoint: mean survival time, dose: 75.0 mg/kg/injection, schedule: Q01DX001 (ip), vehicle: saline) was 0 of 6 and 2 of 6, the survivor count [6] was 0 of 6 and 1 of 6 and the survivor count [5] was 0 of 6 (2×).
With `NCCCN1CCN(c2ccccc2)CC1` the survivor count (T/C endpoint: mean survival time, dose: 400.0 mg/kg/injection, schedule: Q04DX002 (ip), vehicle: saline with Tween-80) was 2 of 3.
For `CCC(=C\c1sc2ccc3ccccc3c2[n+]1CC)/C=C1/Sc2ccc3ccccc3c2N1CC`, the survivor count (T/C endpoint: mean survival time, dose: 75.0 mg/kg/injection, schedule: Q01DX001 (ip), vehicle: other) was 0 of 6, the survivor count (T/C endpoint: mean survival time, dose: 150.0 mg/kg/injection, schedule: Q01DX001 (ip), vehicle: other) was 0 of 6 and the survivor count (T/C endpoint: mean survival time, dose: 300.0 mg/kg/injection, schedule: Q01DX001 (ip), vehicle: other) was 0 of 6.
In the case of `CN(C)N=Nc1c(Cl)cccc1Cl`, the T/C (T/C endpoint: mean survival time, dose: 75.0 mg/kg/injection, schedule: Q01DX009 (ip), vehicle: Klucel (hydroxypropylcellulose) (HPC)) is reported as 125 and 147 % of control and the T/C (T/C endpoint: mean survival time, dose: 150.0 mg/kg/injection, schedule: Q01DX009 (ip), vehicle: Klucel (hydroxypropylcellulose) (HPC)) is reported as 142 % of control [5 of 6 alive].
For `CCOC(=O)C(N)C[S][Sn]([CH3])([CH3])[Cl]` (centres undefined), the survivor count (T/C endpoint: median survival time, dose: 50.0 mg/kg/injection, schedule: Q01DX009 (ip), vehicle: saline) was 3 of 6 and the survivor count (T/C endpoint: median survival time, dose: 100.0 mg/kg/injection, schedule: Q01DX009 (ip), vehicle: saline) was 0 of 6.
With `OCC1OC(n2cnc3c(=S)nc(NO)[nH]c32)C(O)C1O` (centres undefined) the T/C (T/C endpoint: mean survival time, dose: 25.0 mg/kg/injection, schedule: Q01DX005 (ip), vehicle: saline with Tween-80) was 137 % of control and the T/C (T/C endpoint: mean survival time, dose: 50.0 mg/kg/injection, schedule: Q01DX005 (ip), vehicle: saline with Tween-80) was 129 % of control.
`CCOC(=O)/C(C)=C/C(O)CO` (centres undefined) was tested, and the survivor count (T/C endpoint: mean survival time, dose: 400.0 mg/kg/injection, schedule: Q01DX009 (ip), vehicle: saline sonified) was 6 of 6.
In the case of `C=C(C)CNC1=C(C)C(=O)C2=C(C1=O)[C@@H](COC(N)=O)[C@]1(OC)[C@@H]3N[C@@H]3CN21`, the T/C (T/C endpoint: mean survival time, dose: 24.0 mg/kg/injection, schedule: Q01DX001 (ip), vehicle: distilled water + Tween-80) is reported as 140 % of control and the T/C (T/C endpoint: mean survival time, dose: 24.0 mg/kg/injection, schedule: Q01DX001 (ip), vehicle: water) is reported as 126 % of control.
In the case of `NCCc1ccc(O)c(O)c1`, the T/C (T/C endpoint: mean survival time, dose: 200.0 mg/kg/injection, schedule: Q01DX009 (ip), vehicle: saline) is reported as 127 % of control, the T/C (T/C endpoint: mean survival time, dose: 400.0 mg/kg/injection, schedule: Q01DX009 (ip), vehicle: saline) is reported as 133 % of control and the T/C (T/C endpoint: mean survival time, dose: 800.0 mg/kg/injection, schedule: Q01DX009 (ip), vehicle: saline) is reported as 136 % of control. For the same compound, the T/C (T/C endpoint: median survival time, dose: 200.0 mg/kg/injection, schedule: Q01DX009 (ip), vehicle: saline) was 130 and 137 % of control [6 of 7 alive], the T/C (T/C endpoint: median survival time, dose: 300.0 mg/kg/injection, schedule: Q01DX009 (ip), vehicle: saline) was 128 % of control [6 of 7 alive] and the T/C (T/C endpoint: median survival time, dose: 400.0 mg/kg/injection, schedule: Q01DX009 (ip), vehicle: saline) was 132 and 132 % of control [4 of 6 alive].
With `CC[N+](CC)(CCOc1ccc(C(C)(C)CC(C)(C)C)cc1)Cc1ccccc1` the survivor count (T/C endpoint: mean survival time, dose: 10.0 mg/kg/injection, schedule: Q04DX003 (ip), vehicle: saline) was 5 of 6, the survivor count (T/C endpoint: mean survival time, dose: 20.0 mg/kg/injection, schedule: Q04DX003 (ip), vehicle: saline) was 2 of 6 and the survivor count (T/C endpoint: mean survival time, dose: 100.0 mg/kg/injection, schedule: Q04DX003 (ip), vehicle: saline with Tween-80) was 0 of 6. For the same compound, the survivor count (T/C endpoint: mean survival time, dose: 200.0 mg/kg/injection, schedule: Q04DX003 (ip), vehicle: saline with Tween-80) was 0 of 6 and the survivor count [3] was 0 of 6.
